For at least one compound, name, drawing or mass did not settle the structure.
System: antibody RS2845 (raised against Immunogen II)
Assay: Competitive ELISA: HRP tracer (Tracer 1) versus pregabalin or potential cross-reactants for binding sites of polyclonal antibody RS2845
Details: % CR = IC50 pregabalin/IC50 CR x 100; cross-reactants assessed at 5 μg/ml; (S) pregabalin as calibrator
Experimental: The antibody titre is evaluated by coating a microtitre plate (Thermo Fisher Scientific NUNC, 468667) with antibody (125 μl/well) in coating buffer (10 mM Tris pH 8.5) at 37° C. for 2 hours. The plate is then washed 4 times over 10 minutes with working strength mixture of Tris-Buffered Saline and Tween 20 (TBST). 50 μl of sample/standard (pregabalin) is added to the appropriate wells in triplicate, followed by 75 μl of hapten-HRP conjugate and incubated at 25° C. for 1 hour. The plate is then washed and 125 μl of TMB (Randox Laboratories, 4380-15) added to each well and left at room temperature for 20 mins in the dark. The reaction is stopped using 125 μl of 0.2 M sulphuric acid. The absorbances are read at 450 nm with an ELISA microplate reader (BIO-TEK Instruments, Elx800) and the means calculated. Antibody sensitivity can then be determined.
IgG was extracted from serum from the immunized animal the using ammonium sulphate/caprylic acid precipitation and the purified antibody was immobilised on a 96 well ELISA plate at 5 μg/ml in 10 mM TRIS buffer, pH 8.5 overnight at 4° C. The assay was based on competition for binding sites of a polyclonal antibody between HRP tracer and pregabalin or potential cross-reactants. The plate was washed (×3) with TBST and the calibrator (pregabalin) or potential cross reactants added (50 μl per well), followed by HRP tracer (75 μl/well) to the appropriate wells. The plates were then incubated for 60 minutes at 25° C. They were then subjected to 2 quick wash cycles using TBST, followed by 4×2 minute wash cycles. 125 μL of signal 25 (TMB) was then added to each well for 20 mins at room temperature in the dark. The reaction was stopped by the addition of 125 μl of 0.2 M Sulphuric Acid per well and the plates read immediately at 450 nm. Calibration curves were generated and these were used to determine the sensitivity and specificity of the immunoassay for pregabalin and potential cross-reactants. The data was inputted to a computer program called ‘KC Junior’ (Biotek). […]

SMILES | % Cross-Reactivity [%]
CC(=O)OCC[N+](C)(C)C [Acetylcholine] | <1
CCC1(c2ccccc2)C(=O)NC(=O)NC1=O [Phenobarbital] | <1
CCOC(=O)Nc1ccc(NCc2ccc(F)cc2)cc1N [Retigabine] | <1

Reference: patent publication US20160266153A1, “I[…] PREGABALIN” (Randox Laboratories Limited, priority 2015, published 2016)
